Data on 1 substance can be found in PMC8363623.

By UniProt entry, the sequences of proteins in these tests, tags left out. Where a name states a change or a piece, a line headed by the entry shows the natural chain unless it says otherwise.
UniProt Q12066: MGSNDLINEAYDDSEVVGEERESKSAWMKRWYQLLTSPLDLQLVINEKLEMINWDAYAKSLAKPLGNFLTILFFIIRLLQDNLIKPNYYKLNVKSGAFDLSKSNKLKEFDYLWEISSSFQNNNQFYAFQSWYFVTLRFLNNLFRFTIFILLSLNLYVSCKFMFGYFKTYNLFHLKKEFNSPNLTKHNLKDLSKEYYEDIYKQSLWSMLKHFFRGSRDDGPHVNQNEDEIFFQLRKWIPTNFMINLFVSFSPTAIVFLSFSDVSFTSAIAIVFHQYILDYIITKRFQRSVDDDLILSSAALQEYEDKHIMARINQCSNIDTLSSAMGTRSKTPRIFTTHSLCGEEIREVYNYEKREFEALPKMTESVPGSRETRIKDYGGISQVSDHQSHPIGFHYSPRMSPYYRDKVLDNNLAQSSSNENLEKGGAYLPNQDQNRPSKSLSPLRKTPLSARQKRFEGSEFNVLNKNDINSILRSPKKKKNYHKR

Experiment [1] has as its target T1, Ufd1 (two-hybrid fusion) (S. cerevisiae) (UniProt P53044).
T1 sequence: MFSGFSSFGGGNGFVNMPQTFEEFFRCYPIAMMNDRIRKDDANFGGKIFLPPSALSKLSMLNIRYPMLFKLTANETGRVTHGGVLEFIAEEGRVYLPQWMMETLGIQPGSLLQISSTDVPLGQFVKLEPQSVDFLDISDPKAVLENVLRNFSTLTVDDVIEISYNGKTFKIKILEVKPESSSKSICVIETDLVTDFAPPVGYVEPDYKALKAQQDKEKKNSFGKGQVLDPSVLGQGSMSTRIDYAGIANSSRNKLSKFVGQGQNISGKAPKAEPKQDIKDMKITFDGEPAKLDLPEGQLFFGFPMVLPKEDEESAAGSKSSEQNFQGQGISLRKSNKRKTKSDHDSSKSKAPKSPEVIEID
As to the kind of experiment: two-hybrid; Gal4 AD (pGADT7) and BD (pGBKT7) fusions in PJ69a, or Y187 mated with Y2HGold; spotting on -LW and on -LWH, -LWH + 1 mM 3-aminotriazol, -LWHA, 3 days unless indicated.

For experiment [2], the target named is T2, Csm1 (two-hybrid fusion) (S. cerevisiae) (UniProt P25651).
T2 sequence: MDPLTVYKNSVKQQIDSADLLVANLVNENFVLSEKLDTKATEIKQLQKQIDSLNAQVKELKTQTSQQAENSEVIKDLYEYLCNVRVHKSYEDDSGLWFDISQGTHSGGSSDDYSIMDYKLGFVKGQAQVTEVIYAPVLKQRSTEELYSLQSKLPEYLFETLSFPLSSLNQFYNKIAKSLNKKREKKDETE
The description is as above.

Results are given in words; binding and its absence hold for the method and conditions named. Binding calls can cover weak binding; strength is not graded here. Where a sequence is shown, tags or fusion partners need not be part of it.

For “Nur1 C (C-terminal Nur1 region, two-hybrid fusion) (from UniProt Q12066) (domain or fragment)”, the binding entry in experiment [1] and in experiment [2] was “binds” in each case.
